Results are given in words; binding and its absence hold for the method and conditions named.
Molecular target: S. aureus GatD (crystallised construct, from pOPINF) (Staphylococcus aureus strain COL)
Assay: crystal structure; GatD alone, space group P2(1)2(1)2(1), 2 molecules in the asymmetric unit, 1.85 Å; the dimer was judged by visual inspection and PISA software; both purified

Chains of the proteins cited; added tags and fusions are not shown.
UniProt A0A0H2WZ38: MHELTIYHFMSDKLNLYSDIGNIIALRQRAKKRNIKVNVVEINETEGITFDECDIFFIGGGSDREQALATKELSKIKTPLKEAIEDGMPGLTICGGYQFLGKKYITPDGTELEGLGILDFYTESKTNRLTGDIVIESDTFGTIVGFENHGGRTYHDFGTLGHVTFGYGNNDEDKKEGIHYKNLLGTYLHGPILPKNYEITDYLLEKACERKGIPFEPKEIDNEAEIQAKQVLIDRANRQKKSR

binding: no binding
Substance: S. aureus GatD (crystallised construct, from pOPINF) (from UniProt A0A0H2WZ38 1-243) (enzyme)

Reference: article PMC5871853, “First insights of peptidoglycan amidation in Gram-positive bacteria - the high-resolution crystal structure of Staphylococcus aureus glutamine amidotransferase GatD” (Scientific Reports, 2018)
